Source: the supplement of paper PMC4604168 (melanoma cell lines)
The other results are listed elsewhere or left out. Single values are uncertain, as repeats are few or missing.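 The apoptosis fraction was the count of cleaved-PARP antibody-stained nuclei relative to all DNA-stained nuclei, imaged in 1,536-well plates. Screening doses were set so most cells survived, and baseline and induced cleaved-PARP levels vary greatly across cell lines.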

What was measured:
Experiment in all cases: cleaved PARP positive nuclei fraction relative to DMSO control; melanoma cells; higher = more apoptosis
Details in all cases: library dose: low library concentration; 72 h
COLO792 = tested on: COLO792
COLO800 = tested on: COLO800
COLO829 = tested on: COLO829
G361 = tested on: G361
IPC-298 = tested on: IPC-298
IST-MEL1 = tested on: IST-MEL1
LB2518-MEL = tested on: LB2518-MEL
LOXIMVI = tested on: LOXIMVI
MEL-HO = tested on: MEL-HO

Row | Compound | cleaved PARP positive nuclei fraction (COLO792) | cleaved PARP positive nuclei fraction (COLO800) | cleaved PARP positive nuclei fraction (COLO829) | cleaved PARP positive nuclei fraction (G361) | cleaved PARP positive nuclei fraction (IPC-298) | cleaved PARP positive nuclei fraction (IST-MEL1) | cleaved PARP positive nuclei fraction (LB2518-MEL) | cleaved PARP positive nuclei fraction (LOXIMVI) | cleaved PARP positive nuclei fraction (MEL-HO)
1 | N.N.[Cl][Pt][Cl] [cisplatin] + O=C(CCCCCCC(=O)Nc1ccccc1)NO [vorinostat] (first compound 1.6 µM, partner dose 0.08 µM) | 146% | 80.3% | 142% | 74.3% | 136% | 107% | 66.9% | 21.8% | 74%
2 | C[C@]12O[C@H](C[C@]1(O)CO)n1c3ccccc3c3c4c(c5c6ccccc6n2c5c31)CNC4=O [Lestaurtinib] + CN(NC(=O)CC(=O)NN(C)C(=S)c1ccccc1)C(=S)c1ccccc1 [STA4783] (first compound 0.004 µM, partner dose 0.006 µM) | 138% | 92.1% | 80.9% | 67.3% | 62.1% | 160% | 108% | 54.8% | 77.9%
3 | CO[C@H]1C[C@@H]2CC[C@@H](C)[C@@](O)(O2)C(=O)C(=O)N2CCCC[C@H]2C(=O)O[C@H]([C@H](C)C[C@@H]2CC[C@@H](OCCO)[C@H](OC)C2)CC(=O)[C@H](C)/C=C(\C)[C@@H](O)[C@@H](OC)C(=O)[C@H](C)C[C@H](C)/C=C/C=C/C=C/1C [everolimus] + O=C(Oc1ccc([N+](=O)[O-])cc1)N1CCC(C(O)(c2ccc3c(c2)OCO3)c2ccc3c(c2)OCO3)CC1 [JZL184] (first compound 0.02 µM, partner dose 1 µM) | 183% | 52% | 296% | 84.9% | 63.7% | 129% |  | 89.8% | 
4 | C[C@]12O[C@H](C[C@]1(O)CO)n1c3ccccc3c3c4c(c5c6ccccc6n2c5c31)CNC4=O [Lestaurtinib] + Cn1cncc1[C@@](N)(c1ccc(Cl)cc1)c1ccc2c(c1)c(-c1cccc(Cl)c1)cc(=O)n2C [tipifarnib] (first compound 0.004 µM, partner dose 0.01 µM) | 126% | 62.5% | 60.8% | 61.9% | 244% | 100% | 117% | 42.4% | 68.8%
5 | C[C@]12O[C@H](C[C@]1(O)CO)n1c3ccccc3c3c4c(c5c6ccccc6n2c5c31)CNC4=O [Lestaurtinib] + CN(C)S(=O)(=O)c1ccc2c(c1)/C(=C/c1cc3c([nH]1)CCCC3)C(=O)N2 [SU6656] (first compound 0.004 µM, partner dose 0.4 µM) | 161% | 106% | 104% | 50.2% | 96.4% | 34.3% | 53.4% | 34.3% | 34%
6 | N.N.[Cl][Pt][Cl] [cisplatin] + O=C(O)c1ccc(-c2c[nH]c3ncc(-c4ccccc4)cc23)cc1C1CCCC1 [GSK650394] (first compound 1.6 µM, partner dose 0.16 µM) | 55.5% | 121% | 70.4% | 109% | 376% | 107% |  | 53.7% | 83.3%
7 | Cn1cc(C2=C(c3cn(C4CCN(Cc5ccccn5)CC4)c4ccccc34)C(=O)NC2=O)c2ccccc21 [Enzastaurin] + CC(C)(C)c1cnc(CSc2cnc(NC(=O)C3CCNCC3)s2)o1 [SNS-032] (first compound 0.8 µM, partner dose 0.01 µM) | 198% | 111% | 26.6% | 170% | 90.4% | 201% |  | 104% | 61.1%
8 | Clc1ccc(Nc2nnc(Cc3ccncc3)c3ccccc23)cc1 [vatalanib] + Cc1cc(SCc2sc(-c3ccc(C(F)(F)F)c(F)c3)nc2C)ccc1OCC(=O)O [GW0742] (first compound 2 µM, partner dose 2 µM) | 83.6% | 148% | 74.9% | 191% | 84% | 134% |  | 66.3% | 
9 | N.N.[Cl][Pt][Cl] [cisplatin] + O=C(Oc1ccc([N+](=O)[O-])cc1)N1CCC(C(O)(c2ccc3c(c2)OCO3)c2ccc3c(c2)OCO3)CC1 [JZL184] (first compound 1.6 µM, partner dose 1 µM) | 111% | 41.2% | 49.2% | 163% | 129% | 89.3% |  | 79.4% | 
10 | C[As](C)SC[C@H](NC(=O)CC[C@H](N)C(=O)O)C(=O)NCC(=O)O [Darinaparsin] + NCC(=O)Nc1ccc(-n2nc(C(F)(F)F)cc2-c2ccc3c(ccc4ccccc43)c2)cc1 [OSU03012] (first compound 0.4 µM, partner dose 1 µM) | 44.5% | 165% | 134% | 29.8% | 65.3% | 258% | 84.2% | 106% | 71.2%
11 | Cn1cc(C2=C(c3cn(C4CCN(Cc5ccccn5)CC4)c4ccccc34)C(=O)NC2=O)c2ccccc21 [Enzastaurin] + COc1cc2c(Oc3ccc4[nH]c(C)cc4c3F)ncnc2cc1OCCCN1CCCC1 [cediranib] (first compound 0.8 µM, partner dose 0.4 µM) | 214% | 116% | 113% | 81.5% | 83.2% | 129% | 109% | 128% | 21.6%
12 | N.N.[Cl][Pt][Cl] [cisplatin] + COc1cc(Nc2ncc(F)c(Nc3ccc4c(n3)NC(=O)C(C)(C)O4)n2)cc(OC)c1OC [Tamatinib] (first compound 1.6 µM, partner dose 0.4 µM) | 297% | 78.9% | 124% | 144% | 93.8% | 49.4% | 92.6% | 36.7% | 247%
13 | N.N.[Cl][Pt][Cl] [cisplatin] + C=CCn1c(=O)c2cnc(Nc3ccc(N4CCN(C)CC4)cc3)nc2n1-c1cccc(C(C)(C)O)n1 [MK1775] (first compound 1.6 µM, partner dose 0.02 µM) | 130% | 160% | 151% | 131% | 91.6% | 77.7% |  | 58.6% | 150%
14 | C[As](C)SC[C@H](NC(=O)CC[C@H](N)C(=O)O)C(=O)NCC(=O)O [Darinaparsin] + Cn1cncc1[C@@](N)(c1ccc(Cl)cc1)c1ccc2c(c1)c(-c1cccc(Cl)c1)cc(=O)n2C [tipifarnib] (first compound 0.4 µM, partner dose 0.01 µM) | 95.1% | 126% | 78.1% | 194% | 47.3% | 222% | 54.8% | 53.1% | 131%
15 | C[C@]12O[C@H](C[C@]1(O)CO)n1c3ccccc3c3c4c(c5c6ccccc6n2c5c31)CNC4=O [Lestaurtinib] + NC(=O)Nc1cc(-c2cccc(F)c2)sc1C(=O)N[C@H]1CCCNC1 [AZD7762] (first compound 0.004 µM, partner dose 0.02 µM) | 176% | 71.6% | 73.7% | 49% | 86% | 93.4% | 91.8% | 21.7% | 52.5%
16 | Cn1cc(C2=C(c3cn(C4CCN(Cc5ccccn5)CC4)c4ccccc34)C(=O)NC2=O)c2ccccc21 [Enzastaurin] + C[C@@H]1CCN(C(=O)CC#N)C[C@@H]1N(C)c1ncnc2[nH]ccc12 [CP690550] (first compound 0.8 µM, partner dose 1 µM) | 48.9% | 45.9% | 83.2% | 59.3% | 84.2% | 91.7% | 97.7% | 138% | 369%

An excerpt of these results, as a markdown table.

| Row | Compound | cleaved PARP positive nuclei fraction (COLO792) | cleaved PARP positive nuclei fraction (COLO800) | cleaved PARP positive nuclei fraction (COLO829) | cleaved PARP positive nuclei fraction (G361) | cleaved PARP positive nuclei fraction (IPC-298) | cleaved PARP positive nuclei fraction (IST-MEL1) | cleaved PARP positive nuclei fraction (LB2518-MEL) | cleaved PARP positive nuclei fraction (LOXIMVI) | cleaved PARP positive nuclei fraction (MEL-HO) |
| --- | --- | --- | --- | --- | --- | --- | --- | --- | --- | --- |
| 9 | N.N.[Cl][Pt][Cl] [cisplatin] + O=C(Oc1ccc([N+](=O)[O-])cc1)N1CCC(C(O)(c2ccc3c(c2)OCO3)c2ccc3c(c2)OCO3)CC1 [JZL184] (first compound 1.6 µM, partner dose 1 µM) | 111% | 41.2% | 49.2% | 163% | 129% | 89.3% |  | 79.4% |  |
| 10 | C[As](C)SC[C@H](NC(=O)CC[C@H](N)C(=O)O)C(=O)NCC(=O)O [Darinaparsin] + NCC(=O)Nc1ccc(-n2nc(C(F)(F)F)cc2-c2ccc3c(ccc4ccccc43)c2)cc1 [OSU03012] (first compound 0.4 µM, partner dose 1 µM) | 44.5% | 165% | 134% | 29.8% | 65.3% | 258% | 84.2% | 106% | 71.2% |
